Experimental data: PubChem BioAssay AID1259254 (NCATS, 2017)

- Screen: 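Finding genes that stop cells copying their DNA twice in one cycle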 (primary screen)
- Cell system: human HCT116 colorectal cancer cells
- Reagent: single siRNA against human genes
- Timing: 3 days
- Measurement: 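Nuclei stained with Hoechst and imaged; cell-cycle phase assigned by DNA content; G2 share scaled per plate, non-targeting siRNA 0%, GMNN siRNA 100%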
- Reading the numbers: G2 robust z-score: higher = more G2 cells, more excess DNA replication
- Rule for the call: 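Active siRNAs have a G2 robust z of 5 or more median absolute deviations over the median, which in these data means about 38% or higher of GMNN control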
The deposit covers about 59,000 reagents; this is a part drawn at random. About 1,550 of all reagents (2.6%) count as active. 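G2 share is only a proxy for re-replication; each gene was hit by three separate siRNAs, and active genes were retested.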 A number with no mark means an inactive call. The numbers tell different reagents against one gene apart. Not all columns of the deposit are shown. Reagent sequences are not shown. The record does not give: the amount of reagent.

gene knocked down	reagent no.	G2 robust z-score
RAPGEF4 (Rap guanine nucleotide exchange factor 4)	1	1.58
RAPGEF4 (Rap guanine nucleotide exchange factor 4)	2	-0.716
RAPGEF4 (Rap guanine nucleotide exchange factor 4)	3	-0.478
GALNT9 (polypeptide N-acetylgalactosaminyltransferase 9)	1	0.105
GALNT9 (polypeptide N-acetylgalactosaminyltransferase 9)	2	-1.08
GALNT9 (polypeptide N-acetylgalactosaminyltransferase 9)	3	1.22
MAFB (MAF bZIP transcription factor B)	1	-0.224
MAFB (MAF bZIP transcription factor B)	2	-0.0707
MAFB (MAF bZIP transcription factor B)	3	-0.64
TNFRSF14 (TNF receptor superfamily member 14)	1	-0.941
TNFRSF14 (TNF receptor superfamily member 14)	2	0.261
TNFRSF14 (TNF receptor superfamily member 14)	3	-0.285
NPIPB7 (nuclear pore complex interacting protein family member B7)	1	-0.379
NPIPB7 (nuclear pore complex interacting protein family member B7)	2	-0.95
NPIPB7 (nuclear pore complex interacting protein family member B7)	3	0.702
SMYD1 (SET and MYND domain containing 1)	1	0.186
SMYD1 (SET and MYND domain containing 1)	2	0.189
SMYD1 (SET and MYND domain containing 1)	3	0.238
NME3 (NME/NM23 nucleoside diphosphate kinase 3)	1	-1.32
NME3 (NME/NM23 nucleoside diphosphate kinase 3)	2	1.8
NME3 (NME/NM23 nucleoside diphosphate kinase 3)	3	-0.481
PPP1R10 (protein phosphatase 1 regulatory subunit 10)	1	-0.514
PPP1R10 (protein phosphatase 1 regulatory subunit 10)	2	-0.785
PPP1R10 (protein phosphatase 1 regulatory subunit 10)	3	-0.786
SCLT1 (sodium channel and clathrin linker 1)	1	-0.143
SCLT1 (sodium channel and clathrin linker 1)	2	-0.446
SCLT1 (sodium channel and clathrin linker 1)	3	1.1
ELOA2 (elongin A2)	1	0.596
ELOA2 (elongin A2)	2	0.135
ELOA2 (elongin A2)	3	5.33 (active)
LINC00886 (long independently transcribed non-coding RNA 886)	1	2.26
LINC00886 (long independently transcribed non-coding RNA 886)	2	-0.0943
LINC00886 (long independently transcribed non-coding RNA 886)	3	0.4

Laid out differently: results already given
| gene knocked down | reagent no. | G2 robust z-score |
| --- | --- | --- |
| TNFRSF14 (TNF receptor superfamily member 14) | 1 | -0.941 |
| TNFRSF14 (TNF receptor superfamily member 14) | 2 | 0.261 |
| TNFRSF14 (TNF receptor superfamily member 14) | 3 | -0.285 |

Additional reagents:
gene knocked down	reagent no.	G2 robust z-score
COXFA4L2 (cytochrome c oxidase hypoxia associated subunit FA4L2)	1	2.77
COXFA4L2 (cytochrome c oxidase hypoxia associated subunit FA4L2)	2	-0.0872
COXFA4L2 (cytochrome c oxidase hypoxia associated subunit FA4L2)	3	2.16
SMIM12 (small integral membrane protein 12)	1	0.13
SMIM12 (small integral membrane protein 12)	2	-0.128
SMIM12 (small integral membrane protein 12)	3	-0.971
ANKRD10 (ankyrin repeat domain 10)	1	0.667
ANKRD10 (ankyrin repeat domain 10)	2	0.465
ANKRD10 (ankyrin repeat domain 10)	3	-0.58
KIAA0825	1	1.02
KIAA0825	2	-1.05
KIAA0825	3	0.832
SP2 (Sp2 transcription factor)	1	-1.44
SP2 (Sp2 transcription factor)	2	2.96
SP2 (Sp2 transcription factor)	3	1.32
KCNF1	1	0.383
KCNF1	2	-1.26
KCNF1	3	-0.744
CGNL1 (cingulin like 1)	1	-0.217
CGNL1 (cingulin like 1)	2	-0.931
CGNL1 (cingulin like 1)	3	1.87
LRRTM4 (leucine rich repeat transmembrane neuronal 4)	1	-0.541
LRRTM4 (leucine rich repeat transmembrane neuronal 4)	2	-0.189
LRRTM4 (leucine rich repeat transmembrane neuronal 4)	3	-0.776
INPP5D (inositol polyphosphate-5-phosphatase D)	1	0.284
INPP5D (inositol polyphosphate-5-phosphatase D)	2	-0.513
INPP5D (inositol polyphosphate-5-phosphatase D)	3	-0.369
ADNP2 (ADNP homeobox 2)	1	-0.855
ADNP2 (ADNP homeobox 2)	2	-0.804
ADNP2 (ADNP homeobox 2)	3	-0.49
SNX4 (sorting nexin 4)	1	-0.579
SNX4 (sorting nexin 4)	2	-1.24
SNX4 (sorting nexin 4)	3	0.304
TRIML1 (tripartite motif family like 1)	1	0.021
TRIML1 (tripartite motif family like 1)	2	-0.895
TRIML1 (tripartite motif family like 1)	3	-0.915
